From US6989396B2, “Tropane alkaloid multidrug resistance inhibitors from Erythroxylum pervillei and use of the same” (The Board of Trustees of the University of Illinois, priority 2001, dated 2006)

Tested on: KB-3 cells
Assay: Growth inhibitory potential (sulforhodamine B cell survival assay): KB-3
Format: cell-based
Conditions: Homo sapiens, KB3, 72 h, read-out: IC50 KB-3
Description: One part of a natural product drug discovery program involves monitoring the potential of plant extracts to reverse multiple drug resistance. […] To investigate the potential of plant extracts or compounds to reverse multidrug-resistance, KB-V1 cells are treated with different concentrations of plant extracts or compounds in the presence (1 μg/ml) or absence of vinblastine. […] Therefore, KB-3 cells serve as a control to differentiate between nonspecific cytotoxicity and selective MDR antagonism.
Cytotoxic potential. The cytotoxic potential of test substances with KB-3, KB-V1 and KB-8-5 cells was determined as described previously (24). Briefly, various concentrations of test compounds (dissolved in 10 μl of 10% DMSO) were transferred to 96-well plates, and 190 μl aliquots of cell suspensions (5×10^4 cells/ml) were added to each well. […] Finally, 200 μl of 10 mM Tris base were added to each well and the optical densities were determined at 515 nm utilizing an ELISA plate reader. […] Optical density values obtained with the zero-day control were subtracted, and cell survival, relative to control (solvent-treated) cultures, was calculated. The cytotoxic potential of the compounds with CEM and CEM/VLB100 cells was determined as described by Beck et al. (30). […] At 48 hours, the cell number was determined using a Coulter Counter, with a channelizer to distinguish cells from debris.

Work on `COc1cc2c(c(OC)c1OC)-c1ccc(OC)c(=O)cc1[C@@H](NC(C)=O)CC2` [colchicine, reference compound] yielded an IC50 of 50 nM.
